The data set can be described thus: Body weight and plasma lipids after 4-week VAP-1 inhibitor treatment. The note with it: fasting plasma, LJP1586-treated mice (n = 15), mean ± SD. The format is in vivo, mouse (LDLR−/−ApoB100/100). The protocol: The second phase examined the role of VAP-1 in atherosclerotic plaques. Twenty-five LDLR^−/−ApoB^100/100 mice were treated with a VAP-1 inhibitor (LJP1586, Z-3-fluoro-2-(4-methoxybenzyl)allylamine hydrochloride; a kind gift from M. Linnik, La Jolla Pharmaceuticals, San Diego, CA, USA), or with saline. At the age of 2 months, mice were shifted to a high-fat diet for 2 months prior to the start of 4-week treatment, during which they were on normal chow. All mice were housed in an animal facility under standard conditions (12 h light/dark cycle) and allowed access to food and water ad libitum.
During the 4 week treatment period, LDLR^−/−ApoB^100/100 mice received thrice-weekly intraperitoneal (i.p.) injections of a small molecular VAP-1 inhibitor, LJP1586 (Z-3-fluoro-2-(4-methoxybenzyl)allylamine hydrochloride; 0.5 mg/mL diluted in PBS; a kind gift from M. Linnik, La Jolla Pharmaceuticals, San Diego, CA, USA) at a dose of 5 mg/kg. Mice injected with the physiological saline alone (200 μL) served as negative controls. After treatment, all mice were sacrificed and the hearts were collected, formalin-fixed, and paraffin-embedded. Tissues were then cut transversely into 5 μm sections at the level of the coronary ostia. The areas of intima and media were outlined in sections stained with Movat’s pentachrome, and the intima-to-media ratio for each mouse was determined with ImageJ as described previously. Adjacent sections were stained with an anti-mouse Mac-3 antibody to detect activated macrophages in the intima as described above. Sections of aortic ostium were used to determine the area of plaque occupied by macrophages in each mouse because the ostium is easily located due to the presence of valves; it is therefore the most reliable place to compare plaque deposition in individual mice.
Total cholesterol (CHOD-PAP 1489232 kit; Roche Diagnostics GmbH, Mannheim, Germany), choline-containing phospholipids (990–54009; Wako Chemicals GmbH, Neuss, Germany and/or Diagnostic Systems, Holzheim, Germany), and triglycerides (GPO-PAP 1488872 kit; Roche Diagnostics GmbH) were measured using fully enzymatic methods.

In the case of `COc1ccc(C/C(=C/F)CN)cc1.Cl` [LJP1586, Z-3-fluoro-2-(4-methoxybenzyl)allylamine hydrochloride], the fP-Cholesterol was 8.8 ± 2.2 mmol/L, the fP-HDL-cholesterol amounted to 1.0 ± 0.25 mmol/L, the fP-LDL-cholesterol is listed as 7.1 ± 2.1 mmol/L and the fP-Triglycerides is 1.5 ± 0.35 mmol/L.
